Test results reported in article PMC2956079.
These are yes or no findings as the source states them, for the method shown. In cells and extracts the contact can be indirect. Some results given as binding are weak or reduced against the parent protein; the word gives no strength.

How the values were obtained:
[1] = biological target: P-glycoprotein (Pgp), endogenous in MCF-7/ADR cells (human (endogenous in MCF-7/ADR)) (UniProt P08183); assay: co-IP; cell extracts in IP buffer (20 mM Hepes, 0.2 mM EDTA, 5% glycerol, 150 mM NaCl, 1% Nonidet P-40, protease inhibitors); IP with Pgp antibody (C219, Calbiochem); four washes in IP buffer; Western blot with p53 antibody (DO-1, Sigma); rabbit IgG as control
[2] = biological target: P-glycoprotein (Pgp), expressed from a Pgp expression plasmid in MCF-7 cells (human) (UniProt P08183); assay: as above

- binding [1]: binds
- binding [2]: binds
Substance: p53 (from UniProt P04637 1-393)
